The text below walks through data of publication PMC3796317.

Chains of the proteins cited; added tags and fusions are not shown.
UniProt P30052: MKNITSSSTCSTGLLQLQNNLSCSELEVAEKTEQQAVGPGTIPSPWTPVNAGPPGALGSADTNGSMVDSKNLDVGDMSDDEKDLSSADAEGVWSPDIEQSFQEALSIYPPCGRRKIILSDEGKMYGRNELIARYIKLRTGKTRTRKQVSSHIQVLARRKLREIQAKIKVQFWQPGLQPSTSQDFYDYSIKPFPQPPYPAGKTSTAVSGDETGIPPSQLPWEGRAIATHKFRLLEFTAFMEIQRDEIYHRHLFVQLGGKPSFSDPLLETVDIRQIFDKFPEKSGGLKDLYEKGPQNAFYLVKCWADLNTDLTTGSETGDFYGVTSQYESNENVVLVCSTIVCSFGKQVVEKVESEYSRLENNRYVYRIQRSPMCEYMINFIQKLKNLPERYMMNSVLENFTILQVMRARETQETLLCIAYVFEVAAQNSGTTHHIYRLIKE
UniProt P25439: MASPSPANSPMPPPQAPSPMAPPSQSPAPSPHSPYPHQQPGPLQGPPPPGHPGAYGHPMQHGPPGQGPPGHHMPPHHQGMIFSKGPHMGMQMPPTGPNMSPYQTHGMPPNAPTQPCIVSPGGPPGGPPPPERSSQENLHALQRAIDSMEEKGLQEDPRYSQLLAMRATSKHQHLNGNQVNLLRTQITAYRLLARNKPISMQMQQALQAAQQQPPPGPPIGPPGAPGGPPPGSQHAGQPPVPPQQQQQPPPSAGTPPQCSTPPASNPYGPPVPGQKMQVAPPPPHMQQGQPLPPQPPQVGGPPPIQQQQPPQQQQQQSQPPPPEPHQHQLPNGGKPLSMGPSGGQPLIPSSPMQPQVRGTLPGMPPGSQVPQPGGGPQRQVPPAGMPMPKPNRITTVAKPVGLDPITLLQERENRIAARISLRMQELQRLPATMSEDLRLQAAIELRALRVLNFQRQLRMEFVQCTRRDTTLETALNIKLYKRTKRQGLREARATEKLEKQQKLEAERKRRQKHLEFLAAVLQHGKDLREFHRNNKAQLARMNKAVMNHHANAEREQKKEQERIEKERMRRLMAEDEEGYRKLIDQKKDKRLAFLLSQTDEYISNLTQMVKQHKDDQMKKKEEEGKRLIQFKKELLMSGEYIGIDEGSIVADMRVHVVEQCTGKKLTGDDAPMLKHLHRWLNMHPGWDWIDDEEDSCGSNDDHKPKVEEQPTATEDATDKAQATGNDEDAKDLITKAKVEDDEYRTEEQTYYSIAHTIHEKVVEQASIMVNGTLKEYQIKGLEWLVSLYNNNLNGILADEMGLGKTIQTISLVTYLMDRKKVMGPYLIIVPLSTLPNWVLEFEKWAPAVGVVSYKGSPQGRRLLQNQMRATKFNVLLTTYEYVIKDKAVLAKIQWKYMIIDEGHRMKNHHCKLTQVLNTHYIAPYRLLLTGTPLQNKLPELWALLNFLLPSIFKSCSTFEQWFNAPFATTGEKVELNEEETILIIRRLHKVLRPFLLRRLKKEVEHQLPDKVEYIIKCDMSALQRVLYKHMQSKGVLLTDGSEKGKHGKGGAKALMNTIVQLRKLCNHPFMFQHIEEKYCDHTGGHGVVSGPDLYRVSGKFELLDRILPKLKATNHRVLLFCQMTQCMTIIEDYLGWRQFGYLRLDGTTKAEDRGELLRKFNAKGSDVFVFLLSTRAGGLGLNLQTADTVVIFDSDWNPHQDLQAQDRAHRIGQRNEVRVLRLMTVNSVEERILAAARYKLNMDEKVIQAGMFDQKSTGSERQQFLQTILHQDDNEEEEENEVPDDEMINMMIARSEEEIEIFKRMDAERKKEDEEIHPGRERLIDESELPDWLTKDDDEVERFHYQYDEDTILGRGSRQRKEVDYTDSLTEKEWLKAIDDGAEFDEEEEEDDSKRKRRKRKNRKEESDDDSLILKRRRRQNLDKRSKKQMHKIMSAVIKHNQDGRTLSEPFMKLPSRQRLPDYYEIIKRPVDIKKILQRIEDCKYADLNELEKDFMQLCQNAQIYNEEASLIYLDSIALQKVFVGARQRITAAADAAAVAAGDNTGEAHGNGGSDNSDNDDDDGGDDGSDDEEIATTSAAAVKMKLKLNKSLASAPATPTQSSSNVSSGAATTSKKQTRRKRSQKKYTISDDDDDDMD
UniProt Q9VF03: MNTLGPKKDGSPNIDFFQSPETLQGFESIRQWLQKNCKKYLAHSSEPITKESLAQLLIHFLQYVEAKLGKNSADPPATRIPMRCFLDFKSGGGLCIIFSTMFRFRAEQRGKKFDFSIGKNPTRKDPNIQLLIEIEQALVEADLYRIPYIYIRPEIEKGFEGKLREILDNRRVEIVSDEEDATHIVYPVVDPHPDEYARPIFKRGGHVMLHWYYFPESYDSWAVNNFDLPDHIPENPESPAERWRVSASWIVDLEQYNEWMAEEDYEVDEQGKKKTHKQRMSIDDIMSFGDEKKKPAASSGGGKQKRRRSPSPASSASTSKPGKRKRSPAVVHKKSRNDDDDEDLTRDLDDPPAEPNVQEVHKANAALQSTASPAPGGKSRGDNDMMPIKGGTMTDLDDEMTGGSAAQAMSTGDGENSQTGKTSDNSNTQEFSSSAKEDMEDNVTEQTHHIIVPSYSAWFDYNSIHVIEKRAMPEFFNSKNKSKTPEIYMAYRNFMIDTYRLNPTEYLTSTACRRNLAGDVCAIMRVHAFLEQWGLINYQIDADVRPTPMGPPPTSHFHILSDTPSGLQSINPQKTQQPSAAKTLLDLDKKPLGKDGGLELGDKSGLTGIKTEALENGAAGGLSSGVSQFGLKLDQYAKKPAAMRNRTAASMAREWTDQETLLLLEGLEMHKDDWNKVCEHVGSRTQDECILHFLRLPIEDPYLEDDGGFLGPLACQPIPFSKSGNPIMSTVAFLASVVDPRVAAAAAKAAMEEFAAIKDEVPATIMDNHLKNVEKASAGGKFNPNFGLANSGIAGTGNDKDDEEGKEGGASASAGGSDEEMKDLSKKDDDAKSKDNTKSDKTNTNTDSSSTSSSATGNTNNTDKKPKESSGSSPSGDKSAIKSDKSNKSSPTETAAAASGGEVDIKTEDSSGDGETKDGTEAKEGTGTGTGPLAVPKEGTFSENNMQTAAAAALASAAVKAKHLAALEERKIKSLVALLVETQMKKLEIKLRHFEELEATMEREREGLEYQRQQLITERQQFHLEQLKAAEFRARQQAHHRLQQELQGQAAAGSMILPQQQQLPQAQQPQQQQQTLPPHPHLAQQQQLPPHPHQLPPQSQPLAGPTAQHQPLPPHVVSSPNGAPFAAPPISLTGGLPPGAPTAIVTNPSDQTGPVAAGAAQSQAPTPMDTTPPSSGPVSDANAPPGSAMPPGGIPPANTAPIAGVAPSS
UniProt Q8IN94: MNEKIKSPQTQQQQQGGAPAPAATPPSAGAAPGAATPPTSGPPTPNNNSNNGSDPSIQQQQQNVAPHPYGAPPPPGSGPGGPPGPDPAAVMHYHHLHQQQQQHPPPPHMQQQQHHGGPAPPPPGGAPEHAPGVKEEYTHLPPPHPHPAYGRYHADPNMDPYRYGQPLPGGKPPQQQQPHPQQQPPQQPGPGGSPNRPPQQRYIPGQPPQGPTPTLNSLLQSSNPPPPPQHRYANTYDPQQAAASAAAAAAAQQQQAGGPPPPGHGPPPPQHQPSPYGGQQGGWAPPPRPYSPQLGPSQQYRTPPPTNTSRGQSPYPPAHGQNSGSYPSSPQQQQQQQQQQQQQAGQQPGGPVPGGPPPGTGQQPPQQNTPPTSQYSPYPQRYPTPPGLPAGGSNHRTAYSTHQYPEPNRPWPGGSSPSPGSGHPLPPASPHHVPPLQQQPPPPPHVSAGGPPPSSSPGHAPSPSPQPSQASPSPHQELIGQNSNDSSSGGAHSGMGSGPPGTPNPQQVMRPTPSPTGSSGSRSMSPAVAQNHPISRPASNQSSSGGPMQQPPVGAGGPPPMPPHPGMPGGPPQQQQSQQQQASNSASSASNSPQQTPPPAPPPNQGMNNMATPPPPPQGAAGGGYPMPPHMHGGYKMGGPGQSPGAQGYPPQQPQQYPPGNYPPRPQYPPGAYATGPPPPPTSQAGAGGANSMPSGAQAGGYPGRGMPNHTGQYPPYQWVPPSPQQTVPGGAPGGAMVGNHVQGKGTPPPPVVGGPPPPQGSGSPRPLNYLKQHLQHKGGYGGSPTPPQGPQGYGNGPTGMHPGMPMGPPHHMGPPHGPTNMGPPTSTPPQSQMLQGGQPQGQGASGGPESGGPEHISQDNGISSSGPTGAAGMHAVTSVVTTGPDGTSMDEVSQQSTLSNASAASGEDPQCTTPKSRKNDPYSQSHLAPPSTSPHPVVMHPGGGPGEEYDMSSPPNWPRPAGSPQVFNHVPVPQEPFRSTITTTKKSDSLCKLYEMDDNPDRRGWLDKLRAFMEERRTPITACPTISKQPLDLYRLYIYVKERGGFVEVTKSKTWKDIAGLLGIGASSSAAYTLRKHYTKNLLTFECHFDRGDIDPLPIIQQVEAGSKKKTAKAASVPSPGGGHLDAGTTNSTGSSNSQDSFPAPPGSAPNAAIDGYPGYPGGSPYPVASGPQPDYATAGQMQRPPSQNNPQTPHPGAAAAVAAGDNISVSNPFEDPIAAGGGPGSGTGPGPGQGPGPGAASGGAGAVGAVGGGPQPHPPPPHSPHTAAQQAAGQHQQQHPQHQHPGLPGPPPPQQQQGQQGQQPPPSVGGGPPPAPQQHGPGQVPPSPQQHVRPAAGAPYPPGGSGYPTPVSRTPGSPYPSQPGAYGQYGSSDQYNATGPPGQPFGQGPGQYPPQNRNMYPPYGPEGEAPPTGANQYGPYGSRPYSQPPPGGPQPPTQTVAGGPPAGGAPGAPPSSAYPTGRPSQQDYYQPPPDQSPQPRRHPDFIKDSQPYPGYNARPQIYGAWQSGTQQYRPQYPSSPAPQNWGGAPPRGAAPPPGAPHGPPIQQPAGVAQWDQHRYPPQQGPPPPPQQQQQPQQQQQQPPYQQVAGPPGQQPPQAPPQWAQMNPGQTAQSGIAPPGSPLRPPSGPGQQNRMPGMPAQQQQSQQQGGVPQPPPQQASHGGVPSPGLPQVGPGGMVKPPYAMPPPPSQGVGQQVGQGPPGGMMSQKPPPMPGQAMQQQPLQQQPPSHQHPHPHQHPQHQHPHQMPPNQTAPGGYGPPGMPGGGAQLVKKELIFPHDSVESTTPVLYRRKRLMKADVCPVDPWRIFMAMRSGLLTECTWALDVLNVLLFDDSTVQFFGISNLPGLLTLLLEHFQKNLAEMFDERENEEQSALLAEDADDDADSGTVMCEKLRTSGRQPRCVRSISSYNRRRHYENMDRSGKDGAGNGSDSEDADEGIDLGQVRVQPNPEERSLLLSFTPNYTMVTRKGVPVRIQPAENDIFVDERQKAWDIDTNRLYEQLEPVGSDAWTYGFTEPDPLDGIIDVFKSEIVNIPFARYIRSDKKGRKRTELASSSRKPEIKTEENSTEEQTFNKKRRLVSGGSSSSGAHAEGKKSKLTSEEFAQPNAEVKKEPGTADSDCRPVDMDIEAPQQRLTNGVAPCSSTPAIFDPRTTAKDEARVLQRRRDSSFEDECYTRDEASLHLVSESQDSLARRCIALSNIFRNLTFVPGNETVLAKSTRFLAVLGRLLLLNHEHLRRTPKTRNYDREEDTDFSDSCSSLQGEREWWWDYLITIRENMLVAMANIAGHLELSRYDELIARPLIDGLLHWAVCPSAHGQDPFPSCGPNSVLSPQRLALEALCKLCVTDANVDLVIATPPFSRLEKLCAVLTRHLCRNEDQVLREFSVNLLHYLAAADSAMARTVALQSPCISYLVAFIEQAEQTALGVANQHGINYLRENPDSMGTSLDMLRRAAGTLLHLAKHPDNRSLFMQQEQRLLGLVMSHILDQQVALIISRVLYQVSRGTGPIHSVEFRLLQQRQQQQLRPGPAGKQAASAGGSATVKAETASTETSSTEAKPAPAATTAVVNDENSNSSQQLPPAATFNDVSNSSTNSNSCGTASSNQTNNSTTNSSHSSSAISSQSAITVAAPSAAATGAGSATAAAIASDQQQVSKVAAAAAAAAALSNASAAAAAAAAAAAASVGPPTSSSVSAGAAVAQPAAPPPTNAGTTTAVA

Results are given in words; binding and its absence hold for the method and conditions named. Binding seen in cells or lysates may run through a third protein. Here binding means that the protein was enriched with, or labelled near, the bait; the list need not be complete.

Assay [1] concerns the target Scalloped (Sd), endogenous (Drosophila (endogenous in S2 cells)) (UniProt P30052). Put plainly: affinity purification with mass spectrometry; endogenous Sd immunoprecipitated from S2 cell lysate with rabbit anti-Sd antibody; total Sd IP sample and serum control sent for MS directly.
The target in assay [2] is T1, Yorkie (Yki), endogenous (Drosophila (endogenous in S2 cells)) (UniProt Q45VV3).
T1 sequence: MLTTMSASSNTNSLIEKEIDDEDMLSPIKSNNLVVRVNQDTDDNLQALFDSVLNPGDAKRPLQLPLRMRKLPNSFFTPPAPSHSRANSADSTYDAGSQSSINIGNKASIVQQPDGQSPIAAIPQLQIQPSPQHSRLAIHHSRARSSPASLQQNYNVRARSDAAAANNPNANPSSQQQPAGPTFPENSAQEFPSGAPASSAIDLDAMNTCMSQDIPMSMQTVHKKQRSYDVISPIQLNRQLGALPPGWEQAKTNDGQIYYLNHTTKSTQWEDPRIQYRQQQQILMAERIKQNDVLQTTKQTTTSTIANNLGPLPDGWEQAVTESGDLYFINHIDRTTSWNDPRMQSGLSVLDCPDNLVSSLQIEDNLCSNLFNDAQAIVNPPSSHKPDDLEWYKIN
Put plainly: affinity purification with mass spectrometry; endogenous Yki immunoprecipitated from S2 cell lysate with rabbit anti-Yki antibody; IP sample run on SDS-PAGE, bands absent in the IgG IP control selected for MS.

As for “Brahma (Brm), endogenous (from UniProt P25439 1-1638)”, the binding result in assay [1] and in assay [2] was “binds” in each case.
In the case of “Brahma associated protein 155 kDa (Mor), endogenous (from UniProt Q9VF03 1-1209)”, the binding result in assay [1] was “binds”.
For “Osa, endogenous (from UniProt Q8IN94 1-2716)”, in assay [2], the binding result is on record as “binds”.

B1: Brahma associated protein 55kD (Bap55), endogenous (protein, UniProt Q7K012 1-425)
chain: MSGGTMLYGGDEIGALVFDPGHHSLRVGYAQEDSPKAEIPSVVGIGAAPETNLDPETKTDNNATPNNADQRKFYVDTNYVTVPRSNMEVQTYMKDGMIDNWDLFEKVIDYAYANVIQSEPEYHPVLFSEASWNVRNNREKLTELMFEKYNVPAFFLVKNAVLAAFSSGRATALVVDSGATHTSAVPVHEGYVLSQAVVKSPLGGDFLSRQCRQHLEKHGIDLSPVYKIASKDVVKERDNGRFTLRKLPENLTQSWQNYMLQLMMQDFQMNVLQVLENPFDERVAAQIPTVHYEFPNGYHQDFGSERFKIAESLFDNAMLGAGQLASTSVGMCDADVRLSLFGSVVVTGGNTLLQGFPERLNRDLQLRAPSNTRLKMISANGSVERRFGAWIGGSILASIGTFQQMWISSQEYEEAGKSQVERKCP
Turning to B1, the binding entry in assay [1] was “binds”.
